Taken from: PubChem BioAssay AID686937 (Drosophila RNAi Screening Center, 2013)

Test: 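Knock-downs that reduce output of a secreted reporter enzyme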 (primary screen)
Cells: Drosophila S2 cells expressing secreted horseradish peroxidase
Reagents: long dsRNA against Drosophila genes
Duration: about 5.5 days (5 days dsRNA, then 12 h reporter induction)
Conditions: reporter expression induced after 5 days of dsRNA, read 12 h later; inducer not stated
Read-out: 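Chemiluminescent measurement of peroxidase in the medium 12 h after reporter induction, following 5 days of dsRNA, given as a z-score per plate; higher means more secretion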
Scale: z-score: higher = more reporter secreted into medium
In all, the deposit lists about 23,000 reagents; below is an unselected part of those that have a named target and a result. 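Reduced-secretion tags in replicate 1 do not always agree with the z-scores; no criterion for assigning the tags was given.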 Names joined by + are all predicted targets of the reagent. Not all columns of the deposit are shown. Not stated in the record: the amount of reagent.

gene knocked down	DRSC id	z-score, replicate 1
CG9702	DRSC16540	0.24
mRpL14 (mitochondrial ribosomal protein L14)	DRSC18597	0.02
Pex3 (Peroxin 3)	DRSC10731	0.47
SKIP (Shal K[+] channel interacting protein)	DRSC14713	0.18
SKIP (Shal K[+] channel interacting protein)	DRSC14714	0.3
SKIP (Shal K[+] channel interacting protein)	DRSC15864	0.19
SKIP (Shal K[+] channel interacting protein)	DRSC16195	-0.17
SKIP (Shal K[+] channel interacting protein)	DRSC16196	0.3
CG10470	DRSC02061	-0.02
CG17005	DRSC02556	0.45
mthl9 (methuselah-like 9)	DRSC08506	0.36
CG16985	DRSC08501	0.12
CG5250	DRSC15752	0.16
kug (kugelei)	DRSC10911	0.24
CG14689	DRSC14912	0.2
CG33144	DRSC06132	0.67
CG33144	DRSC07024	0.25
Gmd (GDP-mannose 4,6-dehydratase)	DRSC03119	-0.55
IscU (Iron-sulfur cluster assembly enzyme)	DRSC16572	-0.05
Ppox (Protoporphyrinogen oxidase)	DRSC17033	0.2
CG15879	DRSC08487	0.03
Cirl (Calcium-independent receptor for alpha-latrotoxin)	DRSC07227	-1.18
Cirl (Calcium-independent receptor for alpha-latrotoxin)	DRSC21942	0.93
Yp3 (Yolk protein 3)	DRSC20302	0.4
und (uninitiated)	DRSC03629	0.48
5-HT2A (5-hydroxytryptamine (serotonin) receptor 2A)	DRSC11990	0.14
CG7715	DRSC16301	0.34
CG42340	DRSC17458	0.28
CG42340	DRSC17841	0.4
CG42340	DRSC18305	-0.89
CG42340	DRSC21619	-0.81
IntS8 (Integrator 8)	DRSC07417	1.05
NSD (Nuclear receptor binding SET domain protein)	DRSC15691	0.37
Tdh (L-threonine dehydrogenase)	DRSC11788	-0.5
CG33120	DRSC02073	0.23
eIF2Bdelta (eukaryotic translation initiation factor 2B subunit delta)	DRSC04058	-2.35
Rsf1 (Repressor splicing factor 1)	DRSC03423	-0.43
Rsf1 (Repressor splicing factor 1)	DRSC21953	0.11
CG1233	DRSC08269	0.15
O-fut2 (O-fucosyltransferase 2)	DRSC18608	0.41
Cpn (Calphotin)	DRSC16613	0.31
CG6785	DRSC02993	0.44
CG34278	DRSC13208	0.32
Grip75	DRSC03337	0.16
mtTFB2 (mitochondrial transcription factor B2)	DRSC15519	0.46
sgg (shaggy)	DRSC17228	0.38
sgg (shaggy)	DRSC17722	0.36
sgg (shaggy)	DRSC18832	0.18
Ugt37A1 (UDP-glycosyltransferase family 37 member A1)	DRSC02114	0.33
firl (firelighter)	DRSC02428	0.01
CG9328	DRSC03203	-0.04
CG32599	DRSC19433	0.2
pzg (putzig)	DRSC11848	-0.28

12 consecutive records already listed:
gene knocked down	DRSC id	z-score, replicate 1
und (uninitiated)	DRSC03629	0.48
5-HT2A (5-hydroxytryptamine (serotonin) receptor 2A)	DRSC11990	0.14
CG7715	DRSC16301	0.34
CG42340	DRSC17458	0.28
CG42340	DRSC17841	0.4
CG42340	DRSC18305	-0.89
CG42340	DRSC21619	-0.81
IntS8 (Integrator 8)	DRSC07417	1.05
NSD (Nuclear receptor binding SET domain protein)	DRSC15691	0.37
Tdh (L-threonine dehydrogenase)	DRSC11788	-0.5
CG33120	DRSC02073	0.23
eIF2Bdelta (eukaryotic translation initiation factor 2B subunit delta)	DRSC04058	-2.35

More reagents follow:
gene knocked down	DRSC id	z-score, replicate 1
CG6790	DRSC16117	0.42
CG34283	DRSC13313	0.46
CG7099	DRSC03006	0.52
Nop60B (Nucleolar protein at 60B)	DRSC04627	0.22
Arpc2 (Actin-related protein 2/3 complex, subunit 2)	DRSC02113	0.25
Hph (HIF prolyl hydroxylase)	DRSC12164	0.14
Hph (HIF prolyl hydroxylase)	DRSC12251	0.58
Hph (HIF prolyl hydroxylase)	DRSC21876	-0.21
Cisd2 (CDGSH iron sulfur domain 2)	DRSC14904	0.24
dpn (deadpan)	DRSC07605	0.11
CG15147	DRSC02447	0.24
CG15147	DRSC02448	0.08
Pop1 (POP1 ribonuclease P/MRP subunit)	DRSC17739	0.34
CG14562	DRSC11723	0.21
CG1468	DRSC17946	0.48
CG11298	DRSC04100	-0.09
baz (bazooka)	DRSC20309	0.21
RpL38 (Ribosomal protein L38)	DRSC07818	-4.17
CG5835	DRSC15886	0.36
Ank2 (Ankyrin 2)	DRSC08894	-0.02
Ank2 (Ankyrin 2)	DRSC09666	0.37
Ank2 (Ankyrin 2)	DRSC10338	0.2
Ank2 (Ankyrin 2)	DRSC11278	-0.05
Ank2 (Ankyrin 2)	DRSC22922	-0.03
galla-1	DRSC05987	0.45
Ugt37C2 (UDP-glycosyltransferase family 37 member C2)	DRSC02247	0.27
Gr59a (Gustatory receptor 59a)	DRSC21550	-0.12
CG8172	DRSC07089	0.23
CG8172	DRSC22113	0.39
Swip-1 (Swiprosin-1)	DRSC02083	0.1
Swip-1 (Swiprosin-1)	DRSC02084	0.13
Cipc (Clock interacting protein circadian)	DRSC14898	0.28
Cipc (Clock interacting protein circadian)	DRSC14900	0.4
Neb-cGP	DRSC17991	0.29
B-H1 (BarH1)	DRSC19334	0.51
B-H1 (BarH1)	DRSC21922	-0.11
Iru (Iruka)	DRSC14457	0.17
bic (bicaudal)	DRSC07584	-0.36
CG17140 + CG17139	DRSC02585	0.31
CG17140 + CG17139	DRSC02586	0.38
CG15345 (retired record)	DRSC18030	-0.18
CG15345 (retired record)	DRSC22712	0.14
Trpml + CG42638	DRSC11032	0.06
dUTPase (Deoxyuridine triphosphatase)	DRSC01998	0.23
ana (anachronism)	DRSC07579	-0.17
Rab39	DRSC17827	-0.32
CG14803	DRSC18556	0.26
mRpS35 (mitochondrial ribosomal protein S35)	DRSC08551	-0.01
Kcmf1 (Potassium channel modulatory factor 1)	DRSC14459	0.6
RpS19a (Ribosomal protein S19a)	DRSC20281	-3.26
Cpr47Ec (Cuticular protein 47Ec)	DRSC07332	0.04
